Laboratory results as given in publication doi:10.1101/2021.08.25.457694.
Results are given in words; binding and its absence hold for the method and conditions named. In cells and extracts the contact can be indirect. Some binding calls cover weakened binding; strength is not graded here.

The chains behind the UniProt entries cited, without tags or fusion partners.
UniProt Q9H6I2: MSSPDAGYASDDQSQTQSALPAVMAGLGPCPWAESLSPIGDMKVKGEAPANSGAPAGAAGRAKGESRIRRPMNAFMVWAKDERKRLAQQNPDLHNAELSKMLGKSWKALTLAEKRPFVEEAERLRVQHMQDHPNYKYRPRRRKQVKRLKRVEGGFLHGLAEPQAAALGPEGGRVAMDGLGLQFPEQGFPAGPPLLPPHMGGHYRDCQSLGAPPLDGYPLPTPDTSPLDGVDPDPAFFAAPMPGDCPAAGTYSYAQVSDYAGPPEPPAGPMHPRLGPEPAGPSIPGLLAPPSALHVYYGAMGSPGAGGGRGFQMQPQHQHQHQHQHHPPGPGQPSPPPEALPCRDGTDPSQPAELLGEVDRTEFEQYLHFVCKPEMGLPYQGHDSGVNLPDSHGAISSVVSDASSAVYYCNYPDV
UniProt P35222: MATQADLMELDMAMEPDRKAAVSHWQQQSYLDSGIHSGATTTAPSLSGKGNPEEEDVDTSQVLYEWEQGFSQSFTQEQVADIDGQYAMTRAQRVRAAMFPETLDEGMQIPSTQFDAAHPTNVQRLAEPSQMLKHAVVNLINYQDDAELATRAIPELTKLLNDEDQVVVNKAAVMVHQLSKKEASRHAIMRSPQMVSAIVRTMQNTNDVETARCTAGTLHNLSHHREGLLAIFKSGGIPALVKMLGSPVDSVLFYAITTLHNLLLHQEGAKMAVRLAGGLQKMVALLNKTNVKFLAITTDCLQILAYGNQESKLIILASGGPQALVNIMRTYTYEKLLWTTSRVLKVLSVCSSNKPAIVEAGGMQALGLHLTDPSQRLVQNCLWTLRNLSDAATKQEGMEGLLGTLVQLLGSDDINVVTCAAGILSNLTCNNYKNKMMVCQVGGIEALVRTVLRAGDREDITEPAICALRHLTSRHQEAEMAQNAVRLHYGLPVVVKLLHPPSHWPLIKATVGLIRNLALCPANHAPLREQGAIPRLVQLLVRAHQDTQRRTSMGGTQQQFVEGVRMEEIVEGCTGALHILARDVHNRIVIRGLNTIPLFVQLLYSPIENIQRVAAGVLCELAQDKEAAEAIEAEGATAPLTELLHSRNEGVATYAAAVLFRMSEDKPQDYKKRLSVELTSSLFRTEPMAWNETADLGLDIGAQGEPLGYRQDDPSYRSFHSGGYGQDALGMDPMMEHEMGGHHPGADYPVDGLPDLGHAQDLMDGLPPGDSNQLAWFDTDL
UniProt P51532: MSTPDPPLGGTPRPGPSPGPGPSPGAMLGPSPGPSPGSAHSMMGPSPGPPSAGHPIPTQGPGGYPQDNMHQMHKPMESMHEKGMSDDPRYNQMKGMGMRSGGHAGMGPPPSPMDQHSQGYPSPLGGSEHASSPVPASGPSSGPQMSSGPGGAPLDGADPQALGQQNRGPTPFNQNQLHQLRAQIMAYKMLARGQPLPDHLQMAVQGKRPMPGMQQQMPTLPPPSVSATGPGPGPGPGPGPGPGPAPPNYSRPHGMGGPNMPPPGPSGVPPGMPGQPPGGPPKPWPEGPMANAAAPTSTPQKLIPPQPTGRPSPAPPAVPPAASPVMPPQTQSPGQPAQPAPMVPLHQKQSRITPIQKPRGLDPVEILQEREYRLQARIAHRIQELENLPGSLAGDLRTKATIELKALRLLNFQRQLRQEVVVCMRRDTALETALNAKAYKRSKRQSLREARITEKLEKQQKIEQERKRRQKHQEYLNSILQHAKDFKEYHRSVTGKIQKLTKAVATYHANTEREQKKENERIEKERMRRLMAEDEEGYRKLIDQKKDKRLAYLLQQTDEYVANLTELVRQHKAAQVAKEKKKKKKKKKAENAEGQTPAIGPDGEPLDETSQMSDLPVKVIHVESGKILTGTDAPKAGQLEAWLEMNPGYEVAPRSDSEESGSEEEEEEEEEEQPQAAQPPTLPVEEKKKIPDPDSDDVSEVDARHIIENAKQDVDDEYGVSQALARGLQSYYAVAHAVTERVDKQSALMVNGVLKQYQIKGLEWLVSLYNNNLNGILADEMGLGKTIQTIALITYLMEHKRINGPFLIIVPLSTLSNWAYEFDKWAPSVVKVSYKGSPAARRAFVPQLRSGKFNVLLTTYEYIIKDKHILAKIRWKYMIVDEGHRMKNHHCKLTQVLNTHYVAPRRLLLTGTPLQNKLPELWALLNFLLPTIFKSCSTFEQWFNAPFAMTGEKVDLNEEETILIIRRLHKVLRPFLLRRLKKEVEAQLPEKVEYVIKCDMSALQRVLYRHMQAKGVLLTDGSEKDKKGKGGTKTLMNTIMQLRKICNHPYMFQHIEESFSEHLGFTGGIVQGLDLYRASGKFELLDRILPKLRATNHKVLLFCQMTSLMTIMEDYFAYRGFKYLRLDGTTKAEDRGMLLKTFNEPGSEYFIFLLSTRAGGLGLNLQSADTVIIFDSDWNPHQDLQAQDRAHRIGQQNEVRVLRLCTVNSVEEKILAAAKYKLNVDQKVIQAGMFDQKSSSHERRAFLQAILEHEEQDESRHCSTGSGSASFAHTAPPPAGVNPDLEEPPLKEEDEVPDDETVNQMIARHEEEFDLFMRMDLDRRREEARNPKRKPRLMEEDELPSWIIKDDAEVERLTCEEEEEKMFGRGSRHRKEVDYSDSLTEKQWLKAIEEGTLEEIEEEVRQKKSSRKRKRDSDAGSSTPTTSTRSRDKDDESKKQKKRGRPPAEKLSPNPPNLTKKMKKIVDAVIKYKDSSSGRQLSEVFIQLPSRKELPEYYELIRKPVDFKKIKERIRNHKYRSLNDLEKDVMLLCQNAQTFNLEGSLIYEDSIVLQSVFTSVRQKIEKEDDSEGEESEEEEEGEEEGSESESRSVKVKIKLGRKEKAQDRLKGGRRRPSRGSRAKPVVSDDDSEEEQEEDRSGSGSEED
UniProt Q9NQB0: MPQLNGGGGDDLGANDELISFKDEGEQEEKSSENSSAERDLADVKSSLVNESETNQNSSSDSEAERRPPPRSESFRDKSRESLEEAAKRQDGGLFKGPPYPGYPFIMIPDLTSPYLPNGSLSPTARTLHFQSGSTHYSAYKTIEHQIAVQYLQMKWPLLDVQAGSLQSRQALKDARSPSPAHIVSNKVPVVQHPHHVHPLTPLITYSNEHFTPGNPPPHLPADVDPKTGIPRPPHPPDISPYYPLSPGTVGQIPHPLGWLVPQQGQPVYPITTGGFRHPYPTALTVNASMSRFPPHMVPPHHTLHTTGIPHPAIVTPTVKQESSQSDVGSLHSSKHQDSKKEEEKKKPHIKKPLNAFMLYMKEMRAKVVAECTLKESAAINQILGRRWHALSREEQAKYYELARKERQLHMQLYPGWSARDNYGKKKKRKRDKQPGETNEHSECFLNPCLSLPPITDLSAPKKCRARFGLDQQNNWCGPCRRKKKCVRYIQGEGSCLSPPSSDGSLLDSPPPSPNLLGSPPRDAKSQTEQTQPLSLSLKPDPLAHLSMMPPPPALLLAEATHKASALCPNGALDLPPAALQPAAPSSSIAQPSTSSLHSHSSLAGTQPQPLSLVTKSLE

Key:
[1] = biological target: SOX17 (human (endogenous in hPSC-derived DE cells)) (UniProt Q9H6I2); assay: co-IP
[2] = biological target: ß-catenin (CTNNB1) (human (endogenous in hPSC-derived DE cells)) (UniProt P35222); assay: co-IP

binding [1]	binding [2]	Substance
binds	binds	BRG1 (from UniProt P51532 1-1647)
–	binds	SOX17 (from UniProt Q9H6I2 1-414)
no binding	–	TCF7L2 (from UniProt Q9NQB0 1-619)
binds	–	ß-catenin (CTNNB1) (from UniProt P35222 1-781)
